Data taken from publication PMC5650148, “Ssn6-Tup1 global transcriptional co-repressor: Role of the N-terminal glutamine-rich region of Ssn6” (PLoS ONE, 2017).
Results are given in words; binding and its absence hold for the method and conditions named.

Amino acid sequences for entries named in this document (tags omitted). Residues count along the entry.
UniProt P16649, residues 1-72: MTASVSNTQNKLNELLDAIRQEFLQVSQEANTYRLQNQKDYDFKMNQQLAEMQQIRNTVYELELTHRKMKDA

Legend:
[1] = target: Ssn6 Sc3T (N175), the 175 amino-terminal residues of Ssn6 (yeast) (UniProt P14922); experiment: two-hybrid; LexA hybrids as DNA-binding baits, Vp16 or Gal4 activation domain hybrids as preys; wild-type yeast strain; lacZ reporter JK103 with four LexA operators upstream of the GAL1 TATA element; beta-galactosidase activity in Miller units, average of at least three transformants
[2] = target: Tup1 N72, the Ssn6-interaction and Tup1 oligomerization domain (yeast) (UniProt P16649); experiment: as above

Binder | binding [1] | binding [2]
Ssn6 Sc3T (N175), the 175 amino-terminal residues of Ssn6 (domain or fragment, yeast, UniProt P14922 1-175, looked up, Ssn6 (also known as Cyc8), yeast, the 175 amino-terminal residues: NTpolyQ tail and TPRs 1 to 3; One molecule stands for both two-hybrid forms of the same fragment: LexA-Sc3T as bait and Sc3T-Vp16 as prey; A chain carries either LexA or Vp16, never both; The LexA form was also used in the repression assay; also called LexA-Ssn6 Sc3T; LexA-Sc3T (N175); source: yeast two-hybrid fusion (LexA hybrid …)) MNPGGEQTIMEQPAQQQQQQQQQQQQQQQQAAVPQQPLDPLTQSTAETWLSIASLAETLGDGDRAAMAYDATLQFNPSSAKALTSLAHLYRSRDMFQRAAELYERALLVNPELSDVWATLGHCYLMLDDLQRAYNAYQQALYHLSNPNVPKLWHGIGILYDRYGSLDYAEEAFAK | no binding | 
Ssn6 Δ45 (amino acids 46-181), Vp16 activation hybrid (domain or fragment, yeast, UniProt P14922 46-181, looked up, Ssn6 (also known as Cyc8), yeast, amino acids 46-181; lacks the entire NTpolyQ tail (1-45); the four N-terminal TPRs; also called Ssn6 Δ45-Vp16; Ssn6 Δ45-Vp1; source: yeast two-hybrid fusion (YEp92)) AETWLSIASLAETLGDGDRAAMAYDATLQFNPSSAKALTSLAHLYRSRDMFQRAAELYERALLVNPELSDVWATLGHCYLMLDDLQRAYNAYQQALYHLSNPNVPKLWHGIGILYDRYGSLDYAEEAFAKVLELDP |  | no binding
